Literature values, collected in patent US20040138247A1 (priority 1999, published 2004).
Counter-ions that a name gives are not always drawn.

Details: PDR 54th Edition; cited from earlier work

## O=C(O)COCCN1CCN(C(c2ccccc2)c2ccc(Cl)cc2)CC1 (centres unmarked) [cetirizine hydrochloride]
  Decrease of Cmax in the presence of food: 23%
  Delay of Tmax in the presence of food: 1.7 h
